{"source": "the supplement of paper PMC8728848", "test_in_all_cases": "glycan array binding signal (z-score within array); higher = stronger binding", "conditions_in_all_cases": "glycan notation: IUPAC condensed, linker removed", "key": {"[1]": {"molecular_target": "Man(a1-2)Man(a1-3)[Man(a1-2)Man(a1-6)]Man(a1-6)[Man(a1-2)Man(a1-2)Man(a1-3)]Man", "summary_of_the_method": "(§1)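 Arrays were curated from the Consortium for Functional Glycomics database, 3228 in total, and kept only where the protein sequence was available. Binding is expressed as a within-array Z-score. This score was averaged across arrays of the same protein sequence at different concentrations or buffers and across linkers, and negative values can be read as non-binding.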"}, "[2]": {"molecular_target": "Man(a1-2)Man(a1-3)[Man(a1-2)Man(a1-6)]Man(a1-6)[Man(a1-2)Man(a1-2)Man(a1-3)]Man(b1-4)GlcNAc(b1-4)GlcNAc", "summary_of_the_method": "as §1"}, "[3]": {"molecular_target": "Man(a1-2)Man(a1-3)[Man(a1-6)]Man(a1-6)[Man(a1-2)Man(a1-3)]Man(b1-4)GlcNAc(b1-4)GlcNAc", "summary_of_the_method": "as §1"}, "[4]": {"molecular_target": "Man(a1-2)Man(a1-6)[Man(a1-3)]Man(a1-6)[Man(a1-2)Man(a1-2)Man(a1-3)]Man", "summary_of_the_method": "as §1"}, "[5]": {"molecular_target": "Man(a1-2)Man(a1-6)[Man(a1-3)]Man(a1-6)[Man(a1-2)Man(a1-2)Man(a1-3)]Man(b1-4)GlcNAc(b1-4)GlcNAc", "summary_of_the_method": "as §1"}, "Man(a1-3)[Man(a1-6)]Man": {"molecular_target": "Man(a1-3)[Man(a1-6)]Man", "summary_of_the_method": "as §1"}, "[6]": {"molecular_target": "Man(a1-3)[Man(a1-6)]Man(a1-6)[Man(a1-2)Man(a1-3)]Man(b1-4)GlcNAc(b1-4)GlcNAc", "summary_of_the_method": "as §1"}, "[7]": {"molecular_target": "Man(a1-3)[Man(a1-6)]Man(a1-6)[Man(a1-3)]Man", "summary_of_the_method": "as §1"}, "[8]": {"molecular_target": "Man(a1-3)[Man(a1-6)]Man(a1-6)[Man(a1-3)]Man(b1-4)GlcNAc(b1-4)GlcNAc", "summary_of_the_method": "as §1"}, "[9]": {"molecular_target": "Man(a1-3)[Man(a1-6)]Man(b1-4)GlcNAc(b1-4)GlcNAc", "summary_of_the_method": "as §1"}, "[10]": {"molecular_target": "Man(a1-3)[Man(a1-6)]Man(b1-4)GlcNAc(b1-4)[Fuc(a1-6)]GlcNAc", "summary_of_the_method": "as §1"}, "Man(a1-6)Man": {"molecular_target": "Man(a1-6)Man", "summary_of_the_method": "as §1"}, "Man(b1-4)GlcNAc": {"molecular_target": "Man(b1-4)GlcNAc", "summary_of_the_method": "as §1"}, "MurNAc(b1-4)GlcNAc": {"molecular_target": "MurNAc(b1-4)GlcNAc", "summary_of_the_method": "as §1"}, "Neu5Ac(a2-3)Gal": {"molecular_target": "Neu5Ac(a2-3)Gal", "summary_of_the_method": "as §1"}, "[11]": {"molecular_target": "Neu5Ac(a2-3)Gal(b1-3)GalNAc", "summary_of_the_method": "as §1"}, "[12]": {"molecular_target": "Neu5Ac(a2-3)Gal(b1-3)GalNAc(b1-3)Gal(a1-4)Gal(b1-4)Glc", "summary_of_the_method": "as §1"}, "[13]": {"molecular_target": "Neu5Ac(a2-3)Gal(b1-3)GalNAc(b1-4)[Neu5Ac(a2-3)]Gal(b1-4)Glc", "summary_of_the_method": "as §1"}, "[14]": {"molecular_target": "Neu5Ac(a2-3)Gal(b1-3)GalNAc(b1-4)[Neu5Ac(a2-8)Neu5Ac(a2-3)]Gal(b1-4)Glc", "summary_of_the_method": "as §1"}, "[15]": {"molecular_target": "Neu5Ac(a2-3)Gal(b1-3)GalNAc6S", "summary_of_the_method": "as §1"}, "[16]": {"molecular_target": "Neu5Ac(a2-3)Gal(b1-3)GlcNAc", "summary_of_the_method": "as §1"}, "[17]": {"molecular_target": "Neu5Ac(a2-3)Gal(b1-3)GlcNAc(b1-2)Man", "summary_of_the_method": "as §1"}, "[18]": {"molecular_target": "Neu5Ac(a2-3)Gal(b1-3)GlcNAc(b1-2)Man(a1-3)[GlcNAc(b1-4)][Neu5Ac(a2-3)Gal(b1-3)GlcNAc(b1-2)Man(a1-6)]Man(b1-4)GlcNAc(b1-4)GlcNAc", "summary_of_the_method": "as §1"}, "[19]": {"molecular_target": "Neu5Ac(a2-3)Gal(b1-3)GlcNAc(b1-2)Man(a1-3)[Neu5Ac(a2-3)Gal(b1-3)GlcNAc(b1-2)Man(a1-6)]Man(b1-4)GlcNAc(b1-4)GlcNAc", "summary_of_the_method": "as §1"}, "[20]": {"molecular_target": "Neu5Ac(a2-3)Gal(b1-3)GlcNAc(b1-3)Gal(b1-3)GlcNAc", "summary_of_the_method": "as §1"}, "[21]": {"molecular_target": "Neu5Ac(a2-3)Gal(b1-3)GlcNAc(b1-3)Gal(b1-4)GlcNAc", "summary_of_the_method": "as §1"}, "[22]": {"molecular_target": "Neu5Ac(a2-3)Gal(b1-3)GlcNAc(b1-3)GalNAc", "summary_of_the_method": "as §1"}, "[23]": {"molecular_target": "Neu5Ac(a2-3)Gal(b1-3)GlcNAc(b1-4)Gal(b1-4)Glc", "summary_of_the_method": "as §1"}, "[24]": {"molecular_target": "Neu5Ac(a2-3)Gal(b1-3)GlcNAc(b1-6)GalNAc", "summary_of_the_method": "as §1"}, "[25]": {"molecular_target": "Neu5Ac(a2-3)Gal(b1-3)GlcNAc6S", "summary_of_the_method": "as §1"}}, "note": "The list shows a part of the results.", "data": [{"binder": "CD4 (Rattus norvegicus), P05540 (protein) MCRGFSFRHLLPLLLLQLSKLLVVTQGSTSITAYKSEGESAEFSFPLNLGEESLQGELRWKAEKAPSSQSWITFSLKNQKVSVQKSTSNPKFQLSETLPLTLQIPQVSLQFAGSGNLTLTLDRGILYQEVNLVVMKVTQPDSNTLTCEVMGPTSPKMRLILKQENQEARVSRQEKVIQVQAPEAGVWQCLLSEGEEVKMDSKIQVLSKGLNSGGGSGGGTGGGDLAPQMLRELQETNAALQDVRELLRQQVKEITFLKNTVMECDACGLDRNLPPLAPLGPHPETLVKVKDAEDQLGARVGYIELDLNSGKILESFRPEERFPMMSTFKVLLCGAVLSRIDAGQEQLGRRIHYSQNDLVEYSPVTEKHLTDGMTVRELCSAAITMSDNTAANLLLTTIGGPKELTAFLHNMGDHVTRLDRWEPELNEAIPNDERDTTMPVAMATTLRKLLTGELLTLASRQQLIDWMEADKVAGPLLRSALPAGWFIADKSGAGERGSRGIIAALGPDGKPSRIVVIYTTGSQATMDERNRQIAEIGASLIKHW", "values": [{"measurement": "glycan array binding signal (z-score)", "setting": "[1]", "value": 0.438}, {"measurement": "glycan array binding signal (z-score)", "setting": "[2]", "value": -0.44}, {"measurement": "glycan array binding signal (z-score)", "setting": "[3]", "value": -0.933}, {"measurement": "glycan array binding signal (z-score)", "setting": "[4]", "value": 1.05}, {"measurement": "glycan array binding signal (z-score)", "setting": "[5]", "value": -0.08}, {"measurement": "glycan array binding signal (z-score)", "setting": "Man(a1-3)[Man(a1-6)]Man", "value": 1.25}, {"measurement": "glycan array binding signal (z-score)", "setting": "[6]", "value": 0.503}, {"measurement": "glycan array binding signal (z-score)", "setting": "[7]", "value": 0.386}, {"measurement": "glycan array binding signal (z-score)", "setting": "[8]", "value": -0.353}, {"measurement": "glycan array binding signal (z-score)", "setting": "[9]", "value": -1.14}, {"measurement": "glycan array binding signal (z-score)", "setting": "[10]", "value": -0.602}, {"measurement": "glycan array binding signal (z-score)", "setting": "Man(a1-6)Man", "value": -0.075}, {"measurement": "glycan array binding signal (z-score)", "setting": "Man(b1-4)GlcNAc", "value": -1.87}, {"measurement": "glycan array binding signal (z-score)", "setting": "MurNAc(b1-4)GlcNAc", "value": -1.28}, {"measurement": "glycan array binding signal (z-score)", "setting": "Neu5Ac(a2-3)Gal", "value": 0.495}, {"measurement": "glycan array binding signal (z-score)", "setting": "[11]", "value": -1.02}, {"measurement": "glycan array binding signal (z-score)", "setting": "[12]", "value": -0.046}, {"measurement": "glycan array binding signal (z-score)", "setting": "[13]", "value": -0.174}, {"measurement": "glycan array binding signal (z-score)", "setting": "[14]", "value": -1.09}, {"measurement": "glycan array binding signal (z-score)", "setting": "[15]", "value": -1.23}, {"measurement": "glycan array binding signal (z-score)", "setting": "[16]", "value": -0.771}, {"measurement": "glycan array binding signal (z-score)", "setting": "[17]", "value": -0.568}, {"measurement": "glycan array binding signal (z-score)", "setting": "[18]", "value": -0.328}, {"measurement": "glycan array binding signal (z-score)", "setting": "[19]", "value": -0.429}, {"measurement": "glycan array binding signal (z-score)", "setting": "[20]", "value": 0.207}, {"measurement": "glycan array binding signal (z-score)", "setting": "[21]", "value": -0.644}, {"measurement": "glycan array binding signal (z-score)", "setting": "[22]", "value": -0.719}, {"measurement": "glycan array binding signal (z-score)", "setting": "[23]", "value": -1.28}, {"measurement": "glycan array binding signal (z-score)", "setting": "[24]", "value": 0.017}, {"measurement": "glycan array binding signal (z-score)", "setting": "[25]", "value": -1.76}]}]}
